Residue numbers refer to the chain shown, from its start. Names may count otherwise. Results are given in words; binding and its absence hold for the method and conditions named. For some of these results: Binding can be weak; no strength is given. For some of these results: Sequences can lack the tags named with a protein. For some of these results: Binding seen in cells or lysates may run through a third protein.
Key:
[1] = molecular target: T1, Nse5-3C-His(8) (S. cerevisiae) (UniProt Q03718); assay: co-purification; Nse6 and Nse5 co-expressed in E. coli from a bicistronic construct; captured by the His-tag on Nse5 (HisTrap), then heparin and gel filtration
T1 sequence: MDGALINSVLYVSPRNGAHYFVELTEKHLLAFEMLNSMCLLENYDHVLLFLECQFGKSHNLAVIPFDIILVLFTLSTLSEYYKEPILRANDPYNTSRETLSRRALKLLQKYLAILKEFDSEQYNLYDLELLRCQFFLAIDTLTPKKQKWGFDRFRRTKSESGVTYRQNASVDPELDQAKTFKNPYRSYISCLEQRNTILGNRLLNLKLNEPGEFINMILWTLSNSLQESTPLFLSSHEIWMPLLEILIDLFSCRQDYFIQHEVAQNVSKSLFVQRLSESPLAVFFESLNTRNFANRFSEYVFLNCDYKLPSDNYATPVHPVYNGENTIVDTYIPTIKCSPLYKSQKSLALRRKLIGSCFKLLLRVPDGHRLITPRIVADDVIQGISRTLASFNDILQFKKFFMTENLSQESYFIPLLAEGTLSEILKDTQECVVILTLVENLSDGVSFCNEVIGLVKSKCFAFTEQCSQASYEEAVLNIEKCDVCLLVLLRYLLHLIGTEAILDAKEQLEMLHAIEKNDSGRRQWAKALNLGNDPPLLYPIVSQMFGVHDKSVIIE

[2] = molecular target: T2, Nse5-AviTag (from Nse5-AviTag-3C-Twin-Strep, Twin-Strep removed) (S. cerevisiae) (UniProt Q03718); assay: cross-linking; XL-MS with PhoX (0.25 mM, 20 min, RT) on the octamer, 1.6 µM; ATPase buffer (10 mM Hepes-KOH pH 7.5, 150 mM potassium acetate, 2 mM MgCl2, 20% glycerol); without and with 2 mM ATP and 16 nM plasmid DNA; wild-type and Smc5(EQ)/Smc6(EQ) octamers; both purified
T2 sequence: T1 sequence

[3] = molecular target: Nse6(H368C) (S. cerevisiae); assay: cross-linking; BMOE (30 s) on the purified Nse5/6 complex with the cysteine pair Nse6 H368C / Nse5 G56C; SDS-PAGE; both purified
[4] = molecular target: Nse6(1-179)-CPD-His (S. cerevisiae); assay: co-purification; bicistronic co-expression with Nse5 in E. coli; purified by the tag on the Nse6 fragment (N-terminal His(10)-Twin-Strep-3C, or C-terminal CPD-His)

Nse6 (S. cerevisiae)
binding [1]: binds
binding [2]: binds

B1: Nse5(G56C) (protein, UniProt Q03718 1-556)
chain: T1 sequence with G56C
binding [3]: binds

B2: Nse5 (co-expressed with tagged Nse6 truncations) (protein, UniProt Q03718 1-556)
chain: T1 sequence
modifications: selenomethionine substituted (for the crystals)
binding [4]: no binding
